According to article PMC7611231, “Allosteric Activation of the ATPase Activity of the Escherichia coli RhlB RNA Helicase*” (The Journal of biological chemistry, 2007):
No constants are given. Whether binding was seen depends on the method and setting.

Tests used:
[1] = target: Escherichia coli DEAD box RNA helicase RhlB, wild type (E. coli) (UniProt P0A8J8); experiment: SEC; S200 size exclusion of the purified helicase alone; both purified
[2] = target: Escherichia coli DEAD box RNA helicase RhlB, wild type (E. coli) (UniProt P0A8J8); experiment: native MS; nanoflow ESI under non-dissociating conditions; apo-RhlB (without the RNase E peptide), 5-20 uM, 250 mM ammonium acetate; both purified

- binding [1]: no binding
- binding [2]: no binding
B1: Escherichia coli DEAD box RNA helicase RhlB, wild type (enzyme, E. coli, UniProt P0A8J8 1-421, looked up)
chain: MSKTHLTEQKFSDFALHPKVVEALEKKGFHNCTPIQALALPLTLAGRDVAGQAQTGTGKTMAFLTSTFHYLLSHPAIADRKVNQPRALIMAPTRELAVQIHADAEPLAEATGLKLGLAYGGDGYDKQLKVLESGVDILIGTTGRLIDYAKQNHINLGAIQVVVLDEADRMYDLGFIKDIRWLFRRMPPANQRLNMLFSATLSYRVRELAFEQMNNAEYIEVEPEQKTGHRIKEELFYPSNEEKMRLLQTLIEEEWPDRAIIFANTKHRCEEIWGHLAADGHRVGLLTGDVAQKKRLRILDEFTRGDLDILVATDVAARGLHIPAVTHVFNYDLPDDCEDYVHRIGRTGRAGASGHSISLACEEYALNLPAIETYIGHSIPVSKYNPDALMTDLPKPLRLTRPRTGNGPRRTGAPRNRRRSG
notes: The same untagged protein from two vectors (pET11a alone; second cloning site of pRSF-Duet-1, NdeI/XhoI, in pRneRhlB); also called WT RhlB; Helicase B; source: E. coli BL21(DE3), pET11a, purified (published procedure plus S200 size exclusion)
